No constants are given. Whether binding was seen depends on the method and setting. For some of these results: In cells and extracts the contact can be indirect. Some binding calls cover weakened binding; strength is not graded here. Where a sequence is shown, tags or fusion partners need not be part of it.
How the values were obtained:
mRFP-GABARAP = mRFP-GABARAP (UniProt O95166); assay: recruitment of LIR-GFP or gProbe to mRFP-mATG8-containing autophagic membranes (A:C ratio), microscopy; LIR(X)-GFP or gProbe-X co-expressed with one mRFP-mATG8 in HKO HeLa cells; 100 nM BafA1 in EBSS for 2 h; fixed in 4% PFA; autophagosome:cytosol GFP ratio normalized to GFP-expressing cells
mRFP-GABARAPL2 = mRFP-GABARAPL2 (UniProt P60520); assay: as above
GST-GABARAPL2 = GST-GABARAPL2 (UniProt P60520); assay: pull-down; purified GST-mATG8 on glutathione agarose beads, lysate of HEK293T cells expressing LIR-GFP; overnight at 4°C; 50 mM Tris-HCl pH 7.5, 150 mM NaCl, 2 mM EDTA, 1% Triton X-100; anti-GFP blot; only the target purified
[1] = target: LC3C K32/F33 to Q/H mutant (UniProt Q9BXW4); assay: recruitment of LIR-GFP or gProbe to mRFP-mATG8-containing autophagic membranes (A:C ratio), microscopy; LIR(X)-GFP or gProbe-X co-expressed with one mRFP-mATG8 in HKO HeLa cells; 100 nM BafA1 in EBSS for 2 h; fixed in 4% PFA; autophagosome:cytosol GFP ratio normalized to GFP-expressing cells
mRFP-LC3C = mRFP-LC3C (UniProt Q9BXW4); assay: as above
LC3C V26G = LC3C V26G (UniProt Q9BXW4); assay: as above
GST-LC3C = GST-LC3C (UniProt Q9BXW4); assay: pull-down; only the target purified

Protein sequences, listed by entry. Tags and fused reporters are not part of them. Lines headed by an entry give the natural chain unless they say otherwise; changes in a name come on top. Chains listed by the source or under a name are the forms on record and can include a tag or linker. Residues count along the entry.
UniProt P60520: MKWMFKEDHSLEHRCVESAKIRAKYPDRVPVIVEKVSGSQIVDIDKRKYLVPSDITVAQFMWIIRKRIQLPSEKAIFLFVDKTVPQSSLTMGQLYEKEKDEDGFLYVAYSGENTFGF
GST-LC3C (Q9BXW4, residues 1-126): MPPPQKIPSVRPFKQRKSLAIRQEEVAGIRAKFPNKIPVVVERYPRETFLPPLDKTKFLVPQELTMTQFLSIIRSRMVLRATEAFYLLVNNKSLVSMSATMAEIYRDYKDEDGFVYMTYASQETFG
LC3C K32/F33 to Q/H mutant (Q9BXW4, form named): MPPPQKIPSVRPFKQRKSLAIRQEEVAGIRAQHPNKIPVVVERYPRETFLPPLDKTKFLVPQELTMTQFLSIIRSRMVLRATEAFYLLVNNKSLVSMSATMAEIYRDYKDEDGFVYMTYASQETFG
LC3C V26G (Q9BXW4, form named): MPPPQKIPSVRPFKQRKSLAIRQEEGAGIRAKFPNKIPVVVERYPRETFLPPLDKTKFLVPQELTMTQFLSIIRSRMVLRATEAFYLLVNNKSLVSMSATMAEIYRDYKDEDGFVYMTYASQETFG

B1: LIR(Sp)-GFP (domain or fragment)
chain: LQFEIDDEMEPLYNQAKQMRYGDY
- binding (mRFP-GABARAP): binds weakly
- binding (mRFP-GABARAPL2): binds
- binding (GST-GABARAPL2): binds

B2: LIR(TP[T])-GFP (domain or fragment)
chain: FVSEEDEVDGTLIIDLPDSYAAPPS
- binding [1]: binds
- binding (mRFP-LC3C): binds
- binding (LC3C V26G): binds
- binding (GST-LC3C): binds
